One sequence from patent publication US20210261944, “Compositions and methods for ordered and continuous complementary DNA (cDNA) synthesis across non-continuous templates” (The Regents of the University of California, published 2021) can be followed below.

Construct, isoform or probe ends are uncertain for at least one entry. Tags and fusion partners may be left off the protein sequences shown.

This data set relates to T1, BomoC(ed) R2 RT (deltaN274, D996A) (Bombyx mori).
T1 sequence (limits assumed): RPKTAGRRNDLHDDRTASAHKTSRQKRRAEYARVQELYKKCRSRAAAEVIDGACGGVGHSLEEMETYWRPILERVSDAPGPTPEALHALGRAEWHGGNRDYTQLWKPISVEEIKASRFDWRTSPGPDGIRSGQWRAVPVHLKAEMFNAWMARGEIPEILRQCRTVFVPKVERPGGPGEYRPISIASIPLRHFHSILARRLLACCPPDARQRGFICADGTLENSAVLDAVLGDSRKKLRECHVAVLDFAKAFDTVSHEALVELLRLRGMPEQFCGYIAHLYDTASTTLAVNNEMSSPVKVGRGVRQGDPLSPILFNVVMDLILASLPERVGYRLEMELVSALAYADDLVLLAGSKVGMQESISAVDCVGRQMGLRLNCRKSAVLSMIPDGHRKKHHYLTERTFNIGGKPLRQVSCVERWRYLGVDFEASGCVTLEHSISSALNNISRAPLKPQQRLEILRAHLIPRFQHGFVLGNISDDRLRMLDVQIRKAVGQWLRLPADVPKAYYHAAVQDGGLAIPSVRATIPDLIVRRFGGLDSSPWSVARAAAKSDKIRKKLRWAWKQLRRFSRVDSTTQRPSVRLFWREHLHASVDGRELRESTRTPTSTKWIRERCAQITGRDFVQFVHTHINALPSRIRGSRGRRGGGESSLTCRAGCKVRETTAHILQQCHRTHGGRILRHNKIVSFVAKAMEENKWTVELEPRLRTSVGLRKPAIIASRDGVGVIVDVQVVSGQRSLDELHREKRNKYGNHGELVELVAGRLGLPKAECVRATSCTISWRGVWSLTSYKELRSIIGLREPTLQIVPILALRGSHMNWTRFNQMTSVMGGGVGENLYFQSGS
In words: binding assay. The following applies: 5' phosphate; last 6 nt ribonucleotides; 3' adaptor template for low-PCR library; Mg2+, 37C; purified recombinant protein; protein details: N-terminal MBP, C-terminal 6xHis.

With “ACACTCTTTCCCTACACGACGCTCTTCCGATCTC [low-PCR adaptor template c3t(uni)]”, the binding result was “binds”.
